# Measured values taken from patent US7452523B2 (priority 2004, dated 2008).
# Like-named read-outs stand apart in the source and are kept apart here.
# Legend:
# [1] = test system: guinea pigs exposed to citric acid or capsaicin; settings: cited from earlier work
# [2] = test system: patients suffering from cough; settings: 16 mg lung dose delivered as 40 mg/1 ml saline
compound,measurement,setting,value
"CCN(CC)CC(=O)Nc1c(C)cccc1C [lidocaine, acetamide 2-(diethylamino)-N-(2,6-dimethylphenyl)]",first cough,[1]; aerosol 1 mg/ml,not
same,number of coughs,[1]; aerosol 10 mg/ml,significantly decrease a number of coughs
same,first cough,[1]; aerosol 0.1 and 10 mg/ml,postpone a first cough
same,"severe undesirable effects (oropharyngeal numbing, loss of gag reflex, increased plasma levels)",[2],void of any severe undesirable effects
